Assay results published in PubChem BioAssay AID540275 (National Center for Advancing Translational Sciences (NCATS), 2011).
The campaign covered roughly 320,000 compounds. About 620 (0.19%) were called active. Inconclusive means that the source gave no clear call. Such entries were picked first, then a sample of the others. Rule as the data show it: active = activation above about 80%; inconclusive = between about 30% and that limit; inactive = weaker than that.

The chains behind the UniProt entries cited, without tags or fusion partners.
UniProt Q8NER1, whole entry, looked up: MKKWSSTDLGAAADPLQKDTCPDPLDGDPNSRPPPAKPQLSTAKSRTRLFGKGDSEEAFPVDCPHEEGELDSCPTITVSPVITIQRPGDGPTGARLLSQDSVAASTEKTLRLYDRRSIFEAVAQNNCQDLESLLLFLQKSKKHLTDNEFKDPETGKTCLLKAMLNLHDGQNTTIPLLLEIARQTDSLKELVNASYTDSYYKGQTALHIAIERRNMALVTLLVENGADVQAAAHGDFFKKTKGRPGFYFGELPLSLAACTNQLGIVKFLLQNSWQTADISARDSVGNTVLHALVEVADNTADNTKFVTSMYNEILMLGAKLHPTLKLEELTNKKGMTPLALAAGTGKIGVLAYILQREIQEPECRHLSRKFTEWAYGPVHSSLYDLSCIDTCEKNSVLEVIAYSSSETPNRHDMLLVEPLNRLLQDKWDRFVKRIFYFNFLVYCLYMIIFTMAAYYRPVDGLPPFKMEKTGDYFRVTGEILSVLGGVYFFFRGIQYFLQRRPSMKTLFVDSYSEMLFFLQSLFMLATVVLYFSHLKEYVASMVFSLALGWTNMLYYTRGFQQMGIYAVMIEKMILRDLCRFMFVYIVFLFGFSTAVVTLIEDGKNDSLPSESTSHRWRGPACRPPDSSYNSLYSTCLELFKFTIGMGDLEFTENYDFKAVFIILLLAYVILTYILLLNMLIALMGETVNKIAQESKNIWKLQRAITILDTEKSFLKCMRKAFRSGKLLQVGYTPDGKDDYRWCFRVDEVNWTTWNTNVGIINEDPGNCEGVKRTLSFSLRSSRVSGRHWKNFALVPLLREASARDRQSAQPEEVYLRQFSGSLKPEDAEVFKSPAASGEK

target: Transient receptor potential cation channel subfamily V member 1 (Homo sapiens) (UniProt Q8NER1); test: HTS Assay for Compounds that Act as Agonists of the Vanilloid Receptor 1; conditions: TRPV1-expressing cells, Fluo-8 calcium influx, agonist mode; at 8.33 µM, active compounds read high; also: 0% is about no effect
How it was run: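 TRPV1-expressing cells were cultured overnight at 35.5C and loaded with Fluo-8 calcium dye for 40 to 90 min at room temperature. After a 10 s baseline, compound was added and calcium influx was read kinetically for 3 min (ex 480/em 520 nm).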

Row | SMILES | activation
1 | Cc1ccc(/C(C#N)=C\c2ccc(N3CCOCC3)o2)cc1 | inconclusive: 46.8%
2 | COc1ccc(C(=O)/C=C/c2cc(OC)c(O)c(OC)c2)c(F)c1 | inconclusive: 39.9%
3 | O=S(=O)(c1ccc(NC(=S)NCc2ccc(F)cc2)cc1)N1CCOCC1 | inconclusive: 33.5%
4 | Cc1ccccc1C(=O)c1cccn1CC(=O)NCCN1CCN(c2cccc(C)c2C)CC1 | inactive: 4.74%
5 | CCCCSc1nnc(-c2ccc(C)cc2)o1 | inconclusive: 30.2%
6 | CC(SCc1ccccc1)C(=O)Nc1ccccc1-c1ccccc1 (configuration not stated) | inconclusive: 42%
7 | COc1ccc(CCNC(=O)CCc2ccc(S(=O)(=O)NC(C)C)cc2)cc1OC | inactive: -3.77%
8 | CCS(=O)(=O)c1ccc2oc(SCC(=O)NC34CC5CC(CC(C5)C3)C4)nc2c1 | inconclusive: 34.5%
9 | O=C(CN(Cc1ccccc1)S(=O)(=O)c1ccc(S(=O)(=O)N2CCOCC2)cc1)Nc1ccccc1 | inconclusive: 52%
10 | O=C(NCC1CCCO1)c1cc2c([nH]c3ccccc32)c(-c2ccc(F)cc2)n1 (configuration not stated) | inconclusive: 48.8%
11 | COc1ccc(CNC(=O)CNC(c2ccccc2)c2ccccc2)cc1OC | inconclusive: 59%
12 | CC(=O)n1cc(N(C(=O)CCl)c2ccc([N+](=O)[O-])cc2)c2ccccc21 | inactive: 0.429%
13 | NNC(=O)c1ccc(COc2ccc3ccccc3c2)o1 | inconclusive: 54.4%
14 | Cc1cc(C(=O)N/N=C/c2cccc(OC(=O)c3cccc(Br)c3)c2)n[nH]1 | inactive: 0.861%
15 | CC(C)c1ccc2[nH]c3c(c2c1)CCCC3=O | inconclusive: 72.2%
16 | CC1Sc2ccc(S(=O)(=O)NCCc3ccc(Cl)cc3)cc2NC1=O (configuration not stated) | inconclusive: 30.4%
17 | COc1ccc(OC)c(C(=O)NC2CCSc3ccccc32)c1 (configuration not stated) | inconclusive: 42.4%
18 | COc1ccc(Br)cc1CN1C(=O)NC2(CCCCCC2)C1=O | inactive: 6.78%
19 | O=C(O)CCN1C(=O)/C(=C\c2ccc(-c3nc4ccccc4s3)o2)SC1=S | inactive: -2.44%

Row | SMILES | activation
20 | CC(C)c1ccc(Nc2nc(Cl)nc(NCc3ccco3)n2)cc1 | inconclusive: 42.9%
21 | Cc1nc2ccccc2c(=O)n1/N=C/c1ccccc1O | inconclusive: 48.4%
22 | O=C(/C=C/c1cccc(F)c1)NCc1ccc2c(c1)OCO2 | inactive: -1.3%
23 | CC(C)(C)NC(=O)Nc1ccc(F)c(Cl)c1 | inconclusive: 46.4%
24 | CSC1=NSC2=NC(=O)/C(=C/c3coc4ccccc4c3=O)C(=N)N12 | inconclusive: 37.8%
25 | Cc1ccccc1NC1=C(Cl)C(=O)OC1OC(=O)c1ccccc1C (configuration not stated) | inactive: -3.79%
26 | O=C(Nc1ccc(Cl)cc1)c1ccc(Br)cc1F | active: 83%
27 | O=C(CN1CCCC1c1ccc2c(c1)OCCO2)NC(=O)Nc1ccccc1F (configuration not stated) | inconclusive: 36.3%
28 | Cc1ccccc1-n1ncc2c1CC(C)(C)CC2NC(=O)c1ccncc1 (configuration not stated) | inconclusive: 55.5%
29 | COc1ccc(C)cc1NC(=O)CSc1nc2ccccc2nc1N1CC(C)OC(C)C1 (configuration not stated) | inconclusive: 31.5%
30 | COc1cc(NC(=O)c2cccs2)c(OC)cc1NC(=O)Nc1ccc(F)cc1 | inconclusive: 64.6%
31 | Cc1ccccc1NC(=S)NCCSc1ccc(Cl)cc1 | inconclusive: 31.7%
32 | O=C(C1=C[C@@H](c2csc3ccccc23)C[C@@H](OCc2ccc(CO)cc2)O1)N1CCOCC1 | inconclusive: 37.7%
33 | CC(C)N(C(=O)COC(=O)c1cc(Cl)cc(Cl)c1N)C(C)C | inconclusive: 32.2%
34 | Cn1cccc1C(=O)N1CCN(c2cccc(C(F)(F)F)c2)CC1 | inconclusive: 33.1%
35 | COc1ccc([C@H]2[C@H](C(=O)OC(C)(C)C)N3N=Cc4ccccc4C3C23C(=O)c2ccccc2C3=O)c(OC)c1 (some centres not stated) | inconclusive: 63.9%
36 | CNC(=O)c1ccc(-c2ccc(F)cc2)s1 | inconclusive: 38.8%
37 | O=c1c2ccccc2c(/C=N/c2n[nH]c(CCCO)n2)c(O)n1-c1ccccc1Cl | inconclusive: 63.9%
38 | Cc1cc(Cl)c2oc(C(=O)N(C)CC3CCOCC3)c(C)c2c1 | inconclusive: 50%

Shown tab-delimited: entries from further up.
Row	SMILES	activation
20	CC(C)c1ccc(Nc2nc(Cl)nc(NCc3ccco3)n2)cc1	inconclusive: 42.9%
22	O=C(/C=C/c1cccc(F)c1)NCc1ccc2c(c1)OCO2	inactive: -1.3%
23	CC(C)(C)NC(=O)Nc1ccc(F)c(Cl)c1	inconclusive: 46.4%
25	Cc1ccccc1NC1=C(Cl)C(=O)OC1OC(=O)c1ccccc1C (configuration not stated)	inactive: -3.79%
26	O=C(Nc1ccc(Cl)cc1)c1ccc(Br)cc1F	active: 83%
28	Cc1ccccc1-n1ncc2c1CC(C)(C)CC2NC(=O)c1ccncc1 (configuration not stated)	inconclusive: 55.5%
29	COc1ccc(C)cc1NC(=O)CSc1nc2ccccc2nc1N1CC(C)OC(C)C1 (configuration not stated)	inconclusive: 31.5%
32	O=C(C1=C[C@@H](c2csc3ccccc23)C[C@@H](OCc2ccc(CO)cc2)O1)N1CCOCC1	inconclusive: 37.7%
33	CC(C)N(C(=O)COC(=O)c1cc(Cl)cc(Cl)c1N)C(C)C	inconclusive: 32.2%
34	Cn1cccc1C(=O)N1CCN(c2cccc(C(F)(F)F)c2)CC1	inconclusive: 33.1%
36	CNC(=O)c1ccc(-c2ccc(F)cc2)s1	inconclusive: 38.8%
37	O=c1c2ccccc2c(/C=N/c2n[nH]c(CCCO)n2)c(O)n1-c1ccccc1Cl	inconclusive: 63.9%
38	Cc1cc(Cl)c2oc(C(=O)N(C)CC3CCOCC3)c(C)c2c1	inconclusive: 50%

Continued.

Row | SMILES | activation
39 | O=C(O)CCNc1cc2ccccc2cc1C(=O)O | inactive: -1.07%
40 | CCOC(=O)c1[nH]c(C)c(C(=O)Nc2ccc(F)cc2)c1C | inconclusive: 40.2%
41 | Cc1ccc(C(=O)N/C(=C\c2ccc(Cl)cc2)C(=O)NCCN2CCOCC2)cc1 | inactive: -7.03%
42 | O=C(NCCc1ccc(Cl)cc1)c1ccc(CS(=O)Cc2ccc(Cl)cc2)o1 (configuration not stated) | inconclusive: 33.7%
43 | CC1=CC(C)C(C[N+]2(C)CCCCC2)C(C)C1 (configuration not stated) | inactive: 0.358%
44 | CCn1ccnc1CN(C)Cc1cn(-c2cc(C)ccc2C)nc1-c1ccccc1 | inconclusive: 39.3%
45 | CCC(CC)c1nn2c(N)c(/C=C3\C(C)=Nc4ccccc43)c(=O)nc2s1 | inactive: -2.35%
46 | O=C(c1ccc(Cl)cc1)N1CCCC(C(=O)N2CCCCC2)C1 (configuration not stated) | inconclusive: 55.9%
47 | Cc1ccc(NC(=O)c2ccnc(C(C)(C)C)c2)cc1 | inconclusive: 64.6%
48 | Cc1ccc2c(CC(=O)N3CCOCC3)coc2c1 | inconclusive: 45.5%
49 | Cc1cc(C)c(CNC(=O)c2cc(C3CC3)nc3c2cnn3C(C)C)c(=O)[nH]1 | inconclusive: 58.4%
50 | O=[N+]([O-])c1ccc(NC(=S)NCCc2ccc(F)cc2)cc1 | inconclusive: 55.9%
51 | COc1cc(Br)cc(/C=C/c2ccc3cccc(O)c3n2)c1O | inactive: 2.4%
52 | Cc1ccc(C(=O)CCC(=O)OC(C)C(=O)NC2CCCCC2C)cc1 (configuration not stated) | inconclusive: 46.7%
53 | O=C1/C(=C/c2ccncc2)SC(=S)N1Nc1ccccc1 | inactive: -0.0032%
54 | Nc1cc(S(=O)(=O)N2CCCCC2)ccc1N1CCCCC1 | inconclusive: 39.6%
55 | CC1(C)Cc2c(c(N3CCOCC3)nc3snc(Br)c23)CO1 | inconclusive: 60.8%
56 | CC(C)n1ncc2c(C(=O)Nc3cccc(C#N)c3)cc(C3CC3)nc21 | inconclusive: 59.3%
57 | COc1ccc(NC(=O)CN(C)CCOc2ccc(Cl)cc2)cc1OC | inconclusive: 34.9%
